Test results reported in patent US7399825B2, “Synthetic peptide, inhibitor to DNA viruses” (priority 2003, dated 2008).
Not every detail of the peptide structures is certain; ends, links or a residue may be inferred. No end group written: not given here.

Columns and labels:
Type in all cases: cell-based
HSV-1 = assay: Infectivity inhibition of HSV-1 in Vero cell cultures (TCID/50 from CPE); settings: HSV-1, Vero cells
HSV-2 = assay: Infectivity inhibition of HSV-2 in Vero cell cultures (TCID/50 from CPE); settings: HSV-2, Vero cells
[1] = tested on: DNA viruses: HSV-1 HSV-2, cytomegalovirus (CMV) and varicella zoster viruses; assay: Inhibition of cytopathic effect of DNA viruses in cell cultures by synthetic Herp; settings: 10 μg/ml of Herp in the medium
T. bacilli = assay: Multiplication of T. bacilli with Herp in the medium (colony number); settings: Herp incorporated in the medium
herpes viruses = assay: Antiviral activity of synthetic Herp versions (13, 10 and 5 amino acids); settings: synthetic versions of Herp compared; listed as SEQ. ID. NO. 2
Method: ID. […] The sequencing and synthesizing was contracted out to the Protein Core Laboratory of Baylor College of Medicine, Houston, Tex.
Infectivity Inhibition of HSV-1 and HSV-2 Viruses by Synthetic Herp: For comparison, Herpoxin and the synthetic Herps were tested in Vero cell cultures infected with HSV-1 or HSV-2 viruses. The cells were infected in serial concentrations from 10^2 to 10^8. Three wells were used for each concentration. After absorption of the virus the cultures were divided into three groups. Group one received medium containing PBS as a […] control, group two received medium containing 10 μg/ml of Herpoxin (natural Herp) and in the remaining group the medium was incorporated with 10 μg/ml synthetic Herp (Syn-Herp-10 amino acid (AA) version). The tests were read after six days and TCID/50 were calculated from CPE.

[2] = additive at 10 μg/ml, read after six days

Sequence: NLYQFKNMIQ [Syn Herp, Asn-Leu-Tyr-Gln-Phe-Lys-Asn-Met-Ile-Gln]
- Log Inhibition of infectivity (HSV-1; 10 μg/ml, versus PBS control (Log TCID/50 5.2)): 1.2 Log
- Log TCID/50 (HSV-1; [2]): 4.0
- Log Inhibition of infectivity (HSV-2; 10 μg/ml, versus PBS control (Log TCID/50 7.0)): 1.9 Log
- Log TCID/50 (HSV-2; [2]): 5.1
- inhibition of the cytopathic effect (CPE) of the DNA viruses, tissue culture infectivity dose TCID/50 [1]: two to four
- number of colonies of T. bacilli (T. bacilli): reduction in number of colonies
- antiviral activity / inhibition of herpes viruses (herpes viruses): good results
